Results are given in words; binding and its absence hold for the method and conditions named. In cells and extracts the contact can be indirect. A yes stands for co-enrichment or nearness to the bait. Other partners may have been found.

One assay deals with Ss-Sl2 (Sclerotinia sclerotiorum (endogenous in isolate SUN-F-M)) (UniProt A7EKS0). Briefly: affinity purification with mass spectrometry.
For “Woronin body major protein (from UniProt A7EDY7)”, the binding result is reported as “binds”.

Another assay has the same target. Briefly: affinity purification with mass spectrometry; 1 mg protein extract of the wild type strain (PDA, 4 days; hyphae and immature sclerotia) incubated with 2 μg Ss-Sl2 antibodies at 4°C overnight, protein A + G agarose, washed with PBS; bands analysed by LC/MS/MS; pre-immune serum as control; proteins that appeared in two independent experiments.
As for “40S ribosomal protein S2 (from UniProt A7F5X2)”, the binding entry is given as “binds”.

Turning to “40S ribosomal protein S7 (from UniProt A7F4F2)”, the binding result is listed as “binds”. For the substance “40S ribosomal protein S24 (from UniProt A7E6M6)”, the binding entry is “binds”.

With “60S ribosomal protein L6 (from UniProt A7E777)”, the binding result is on record as “binds”. In the case of “60S ribosomal protein L9 (from UniProt A7E780)”, the binding result was “binds”. In the case of “60S ribosomal protein L10-A (from UniProt A7EJK9)”, the binding result is on record as “binds”. Turning to “60S ribosomal protein L17 (from UniProt A7F4H8)”, the binding entry was “binds”. Same read-out and setting: for “60S ribosomal protein L35 (from UniProt A7END6)” the value was “binds”; for “Elongation factor 1-alpha (from UniProt A7EJM6)”, “binds”; for “Glyceraldehyde-3-phosphate dehydrogenase (from UniProt A7ER45)”, “binds”. With Histone H2B.1 (from UniProt A7F043), the binding entry was “binds”.

As to “Ribosomal protein S3 (from UniProt A7EP73)”, the binding entry was “binds”.

These data come from paper PMC3338822.
